# In PubChem BioAssay AID2685 (National Center for Advancing Translational Sciences (NCATS), 2010):
# Some of the results follow. These are further read-outs of the screen, such as a control signal, another cell line or another target. No call is given for them. Compounds called inactive in the main read-out are mostly missing here. Words in brackets tell the shape of the fitted curve; partial curves, single points and poor fits give uncertain potencies.
# Test: qHTS Assay for Lipid Storage Modulators in Drosophila S3 Cells;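 on cell number change: cells counted by Cell Tracker Red CMTPX staining in the red channel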
# Conditions: BODIPY lipid droplet fluorescence, 18-24 h; for cell number change: measured here: cell count max response, cells fed with added oleic acid
# Outline: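 Drosophila S3 cells got compounds at several concentrations plus oleic acid (400 uM solution). Laser-scanning cytometry with 488 nm excitation read lipid droplets at 500-530 nm and cells at 575-640 nm. Percent activity was relative to 20 uM Triacsin C.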
# [1] = measured here: cell number channel AC50, cells fed with added oleic acid
# [2] = measured here: lipid fluorescence (Fed channel) AC50, cells fed with added oleic acid
SMILES,AC50 [1],AC50 [2],cell number change [%]
Cc1ccc(C2=NN(C)c3nc4ccccc4n3C2)cc1,"2.31 µM [rising, partial curve]","1.46 µM [rising, partial curve]",
CCC(=O)N1CCN(c2ccccc2NC(=O)Cc2ccc(Cl)cc2)CC1,,"1.64 µM [rising, partial curve, poor fit]",-6.78
NC(=O)NC(=O)COC(=O)CCSc1ccccc1,"0.0291 µM [falling, full curve]","0.0259 µM [falling, full curve]",-33.5
CCOC(=O)c1cnc2c(C)cccc2c1Nc1cccc(C(=O)O)c1,"1.64 µM [rising, partial curve, poor fit]","0.58 µM [rising, single point]",8.43
Cc1cc(C)nc(SCc2nc(N)nc(-c3ccccc3O)n2)n1,,"0.731 µM [rising, single point]",0.676
CCOC(=O)N1CCN(S(=O)(=O)c2ccc(OC)cc2)CC1,,"2.06 µM [falling, partial curve, poor fit]",11.4
Cc1cccn2c(=O)c(/C=C3\SC(=S)NC3=O)c(NCCCN3CCOCC3)nc12,,"25.9 µM [falling, single point]",1.43
Cc1oc(-c2ccc(Cl)cc2)nc1CN1CCCC(C(=O)NCCCN2CCCC2=O)C1 (stereo not given),,"6.51 µM [falling, partial curve]",
COc1cccc(/C=C/C(=O)OCC(=O)c2c[nH]c3ccccc23)c1,,"0.103 µM [falling, full curve, poor fit]",
COc1ccc(OC)c(NC(=O)C2CCCN(S(=O)(=O)c3c(C)noc3C)C2)c1 (stereo not given),,,19.9
Cc1cc(C)nc(S/C=C/C(=O)c2ccccc2)n1,"16.4 µM [falling, partial curve]","14.6 µM [falling, partial curve]",-60.4
CN(Cc1ccc(F)cc1)C(=O)c1cccc(S(=O)(=O)NCc2ccccc2)c1,"7.31 µM [rising, partial curve]",,60.6
O=C(NN=C1CCCCCC1)c1ccc(Cl)s1,,"0.58 µM [rising, single point]",-19.3
O=C(NCCN1C(=O)C2C3C=CC(C3)C2C1=O)NCc1ccccc1 (stereo not given),"0.206 µM [falling, full curve, poor fit]","29.1 µM [rising, single point]",-16.2
COC(=O)C(C)(C(=O)OC)c1ccc(C(F)(F)F)cc1[N+](=O)[O-],"0.291 µM [rising, partial curve]","2.31 µM [rising, partial curve]",5.54
Cc1ccc2c(N)c(C#N)sc2n1,,,3.51
Cc1ccsc1C(C(=O)NC(C)(C)C)N(C(=O)c1csnn1)c1ccccc1 (stereo not given),,"29.1 µM [falling, single point]",
N/C(Cc1cccc2ccccc12)=N\OC(=O)COc1ccccc1,,,0.407
CN(Cc1cccs1)c1nc(-c2cccnc2)nc2ccccc12,"1.3 µM [rising, full curve]","1.84 µM [rising, partial curve]",83.3
Cc1cc(=O)n2nc(N3CCCC(C(=O)NCc4ccco4)C3)sc2n1 (stereo not given),,,8.86

# Four compounds already listed, sorted by formula weight, high to low:
SMILES,AC50 [1],AC50 [2],cell number change [%]
Cc1cccn2c(=O)c(/C=C3\SC(=S)NC3=O)c(NCCCN3CCOCC3)nc12,,"25.9 µM [falling, single point]",1.43
Cc1ccsc1C(C(=O)NC(C)(C)C)N(C(=O)c1csnn1)c1ccccc1 (stereo not given),,"29.1 µM [falling, single point]",
CN(Cc1ccc(F)cc1)C(=O)c1cccc(S(=O)(=O)NCc2ccccc2)c1,"7.31 µM [rising, partial curve]",,60.6
Cc1ccc2c(N)c(C#N)sc2n1,,,3.51

# More entries

SMILES,AC50 [1],AC50 [2],cell number change [%]
CC(=O)c1cccc(Nc2cc(C)nc3c(C)cc(C)cc23)c1,,"4.61 µM [falling, partial curve]",3.77
CC(C)c1cccc(C(C)C)c1NC(=O)CN1C(=O)NC2(CCCCCCC2)C1=O,,"16.4 µM [rising, single point]",25
COc1ccc(N(CC(=O)NCCSc2ccccc2)S(=O)(=O)c2ccccc2)cc1OC,,,2.09
O=C(NCc1cccs1)c1ccncc1,,"0.116 µM [falling, full curve, poor fit]",
COC(=O)c1ccc(-n2nnnc2SCC(=O)Nc2ccccc2F)cc1,,"13 µM [falling, partial curve, poor fit]",-15.1
O=C(CSc1ccc(-c2nc3ccccc3[nH]2)cn1)N1CCN(C(=O)c2ccco2)CC1,,"20.6 µM [falling, single point]",-13.4
O=C(CSc1nnc(COc2ccccc2)o1)N1CCOCC1,"0.731 µM [rising, full curve]",,44.2
COC(=O)C1NN=C(C(=O)c2ccc(Br)cc2)C1c1cccc(Br)c1 (stereo not given),,"16.4 µM [rising, partial curve]",24.4
O=C(NCc1ccccc1)C1=C[C@H](c2csc3ccccc23)C[C@H](OCCCCO)O1,,"6.51 µM [rising, single point]",3.81
Cc1cccc(-n2c(N)cc(=O)nc2SCC(=O)Nc2nnc(CC(C)C)s2)c1,"3.66 µM [falling, full curve, poor fit]","3.26 µM [falling, partial curve]",-29
O=c1cc[nH]c2c(Cl)cccc12,"0.58 µM [falling, full curve, poor fit]",,1.27
COc1ccc(OC)c(NC(=O)Nc2ccc3c(c2)OCO3)c1,,"0.631 µM [rising, full curve, poor fit]",-14.4
CC(C)NC(=O)NC1C2CC3CC(C2)CC1C3 (stereo not given),,"0.0184 µM [falling, full curve, poor fit]",-4.43
CCCC(=O)N1CCC(Cc2ccccc2)CC1,,,-20.6
CC(Oc1ccccc1)C(=O)Nc1nc(-c2ccccn2)cs1 (stereo not given),"2.59 µM [rising, single point]",,
CCCCn1c(N)c(N(CC)C(=O)Cc2ccc(S(=O)(=O)N3CCOCC3)s2)c(=O)[nH]c1=O,,"0.116 µM [falling, full curve, poor fit]",-17.6
COc1ccc(CCNc2nc(-c3ccc(O)cc3)cs2)cc1OC,"29.1 µM [falling, single point]","29.1 µM [rising, single point]",-69
CCC(C)N(C(=O)CCC(=O)Nc1cc(C)on1)C(C(=O)NC(C)(C)C)c1ccccc1Cl (stereo not given),,"29.1 µM [rising, single point]",22.6
N#Cc1ccccc1OCC(=O)OCC(=O)N1CCN(C(=O)c2ccco2)CC1,"6.51 µM [rising, partial curve, poor fit]","0.366 µM [rising, full curve]",
COc1ccc2c(c1)O/C(=C\c1ccccc1C)C2=O,"23.1 µM [rising, single point]","29.1 µM [rising, single point]",31.5

SMILES,AC50 [1],AC50 [2],cell number change [%]
CCCCN(C(=O)CSc1ncn[nH]1)c1c(N)n(Cc2ccccc2)c(=O)[nH]c1=O,,"13 µM [rising, partial curve, poor fit]",-0.82
Cn1c(-c2ccc3c(c2)OCO3)cnc1NC(=O)CCC(=O)NCCc1ccccc1,,"6.51 µM [rising, partial curve, poor fit]",-4.84
COCCC1CCCCN1C(=O)c1cccc(OC2CCN(S(C)(=O)=O)CC2)c1 (stereo not given),,,-1.73
Cc1nc(Nc2ccccc2)sc1-c1ccccc1,"25.9 µM [falling, partial curve]","29.1 µM [falling, partial curve]",-69.6
O=C(COC(=O)c1ccco1)NCC1CCCCC1,,"6.51 µM [rising, partial curve]",-3.31
CCCCCC(C)NC(=O)c1cc(S(=O)(=O)N2CCCCC2)ccc1N1CCOCC1 (stereo not given),,"20.6 µM [rising, partial curve, poor fit]",21.1
C=CCNc1nc(-c2sc(NC(=O)CC)nc2C)cs1,,,-14.5
CC(C)CN1CCC(=O)N([C@H](CO)c2ccccc2)CC1,"0.146 µM [rising, full curve, poor fit]","0.58 µM [rising, single point]",21.9
CCOC(=O)[C@@H]1[C@H]2COc3ccc(Br)cc3[C@H]2N2C(=O)N(c3cccc(F)c3)C(=O)[C@]12C,"23.1 µM [rising, single point]","2.91 µM [falling, single point]",41.9
CC(C)(C)NC(=O)C(OC(=O)c1ccco1)c1ccc(Cl)cc1 (stereo not given),,"3.26 µM [rising, single point]",10.5
O=C(CN1C(=O)C2CCCCC2C1=O)OCc1nnc(-c2ccccc2)o1 (stereo not given),,,-21.6
CCOC(=O)C1=C(C)OC(N)=C(C#N)C1c1cc(C)sc1C (stereo not given),"3.66 µM [falling, partial curve, poor fit]",,-45.8
CCn1cc(Cl)c(C(=O)Nc2c(C)nn(Cc3c(F)c(F)c(F)c(F)c3F)c2C)n1,,"0.58 µM [rising, single point]",-22.4
CC/C(=N/Nc1ccc(Cl)cc1)c1cnnc(SC)n1,,"29.1 µM [rising, single point]",-5.37
CCN(Cc1nc(-c2ccccc2)no1)C(=O)c1ccc2c(c1)OCO2,,,13
O=C(CNC(=O)c1ccccc1)NCC1COc2ccccc2O1 (stereo not given),,"6.51 µM [rising, partial curve, poor fit]",
O=C(/C=C/c1ccc(Cl)cc1)N1CCN(c2ccccc2[N+](=O)[O-])CC1,"14.6 µM [rising, single point]",,39.2
CCOc1ccc(C(C)=O)cc1Cc1c(O)nc(N)[nH]c1=O,,"10.3 µM [falling, partial curve]",-16.1
CN(C(=O)C12CC3CC(CC(C3)C1)C2)C1(C)CCS(=O)(=O)C1 (stereo not given),"0.82 µM [rising, full curve, poor fit]","0.731 µM [falling, partial curve, poor fit]",19.9
